Measured values from the supplement of paper PMC10849652.
This is one part of the list. Residues, ends and D or L forms follow the SMILES beside them. *: point of attachment. Cbz = O=C(OCc1ccccc1)*

The chains behind the UniProt entries cited, without tags or fusion partners. Where a name states a change or a piece, a line headed by the entry shows the natural chain unless it says otherwise.
UniProt P02100: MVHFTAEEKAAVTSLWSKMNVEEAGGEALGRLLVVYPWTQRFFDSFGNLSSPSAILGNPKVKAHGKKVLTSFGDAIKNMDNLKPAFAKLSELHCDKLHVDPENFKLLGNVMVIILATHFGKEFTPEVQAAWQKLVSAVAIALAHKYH
UniProt Q8WUI4: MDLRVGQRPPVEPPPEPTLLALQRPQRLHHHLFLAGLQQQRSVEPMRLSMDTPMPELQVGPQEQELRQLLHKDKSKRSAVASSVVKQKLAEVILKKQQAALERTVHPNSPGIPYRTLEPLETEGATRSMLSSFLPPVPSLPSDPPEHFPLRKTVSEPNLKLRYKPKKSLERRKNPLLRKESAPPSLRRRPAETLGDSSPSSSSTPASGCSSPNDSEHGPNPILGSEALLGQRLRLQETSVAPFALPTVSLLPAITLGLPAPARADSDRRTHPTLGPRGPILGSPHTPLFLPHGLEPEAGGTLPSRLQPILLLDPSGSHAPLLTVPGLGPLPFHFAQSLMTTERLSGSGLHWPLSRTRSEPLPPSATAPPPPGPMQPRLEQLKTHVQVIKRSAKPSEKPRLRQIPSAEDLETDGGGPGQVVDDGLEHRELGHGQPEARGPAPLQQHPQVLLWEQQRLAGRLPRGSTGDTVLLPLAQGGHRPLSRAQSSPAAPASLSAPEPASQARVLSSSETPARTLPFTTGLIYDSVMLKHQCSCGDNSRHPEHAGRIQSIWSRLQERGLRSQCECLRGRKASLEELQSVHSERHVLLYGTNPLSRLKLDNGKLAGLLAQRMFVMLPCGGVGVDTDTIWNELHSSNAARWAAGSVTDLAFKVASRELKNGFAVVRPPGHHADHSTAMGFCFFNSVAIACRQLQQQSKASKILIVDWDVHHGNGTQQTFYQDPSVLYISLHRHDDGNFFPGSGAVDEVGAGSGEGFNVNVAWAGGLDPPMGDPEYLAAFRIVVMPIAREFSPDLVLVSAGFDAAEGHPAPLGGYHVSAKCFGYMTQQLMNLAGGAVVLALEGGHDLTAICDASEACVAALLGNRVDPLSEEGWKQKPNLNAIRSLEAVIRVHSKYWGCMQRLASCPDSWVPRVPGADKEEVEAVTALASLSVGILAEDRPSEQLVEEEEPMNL
UniProt Q9P0R6: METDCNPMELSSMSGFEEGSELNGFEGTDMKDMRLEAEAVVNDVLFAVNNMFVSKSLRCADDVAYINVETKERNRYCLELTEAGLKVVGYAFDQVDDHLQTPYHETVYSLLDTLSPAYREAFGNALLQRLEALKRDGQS
UniProt P30711: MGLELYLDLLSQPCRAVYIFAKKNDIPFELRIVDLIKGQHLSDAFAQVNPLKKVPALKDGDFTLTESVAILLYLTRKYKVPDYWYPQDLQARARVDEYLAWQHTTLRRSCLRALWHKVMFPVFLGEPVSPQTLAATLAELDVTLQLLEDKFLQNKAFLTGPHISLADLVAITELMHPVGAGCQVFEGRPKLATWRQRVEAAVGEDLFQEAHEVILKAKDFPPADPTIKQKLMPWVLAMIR
UniProt P46976: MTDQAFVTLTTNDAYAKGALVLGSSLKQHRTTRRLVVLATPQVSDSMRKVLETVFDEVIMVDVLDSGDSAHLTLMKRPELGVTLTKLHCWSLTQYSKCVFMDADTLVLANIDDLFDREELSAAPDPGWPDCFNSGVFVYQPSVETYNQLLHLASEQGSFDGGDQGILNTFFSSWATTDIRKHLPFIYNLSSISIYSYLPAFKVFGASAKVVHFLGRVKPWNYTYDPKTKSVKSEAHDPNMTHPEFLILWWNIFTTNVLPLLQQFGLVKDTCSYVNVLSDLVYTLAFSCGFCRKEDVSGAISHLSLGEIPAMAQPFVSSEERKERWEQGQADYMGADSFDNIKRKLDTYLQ
UniProt Q9H0R4: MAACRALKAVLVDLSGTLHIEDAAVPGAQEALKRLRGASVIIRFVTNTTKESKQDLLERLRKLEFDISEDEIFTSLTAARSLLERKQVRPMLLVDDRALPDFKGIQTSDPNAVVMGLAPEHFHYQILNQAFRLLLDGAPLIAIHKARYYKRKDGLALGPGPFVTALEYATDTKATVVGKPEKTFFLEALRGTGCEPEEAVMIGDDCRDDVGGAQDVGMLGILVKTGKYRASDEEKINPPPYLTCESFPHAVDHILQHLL
UniProt P29084: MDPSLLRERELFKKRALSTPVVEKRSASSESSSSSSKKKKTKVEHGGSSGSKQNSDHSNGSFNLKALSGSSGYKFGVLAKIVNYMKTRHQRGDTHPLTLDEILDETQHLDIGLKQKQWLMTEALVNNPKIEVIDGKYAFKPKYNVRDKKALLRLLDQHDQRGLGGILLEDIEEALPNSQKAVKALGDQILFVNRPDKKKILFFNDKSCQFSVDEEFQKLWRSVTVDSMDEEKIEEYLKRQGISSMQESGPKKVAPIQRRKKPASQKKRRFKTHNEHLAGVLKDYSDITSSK
UniProt Q13889: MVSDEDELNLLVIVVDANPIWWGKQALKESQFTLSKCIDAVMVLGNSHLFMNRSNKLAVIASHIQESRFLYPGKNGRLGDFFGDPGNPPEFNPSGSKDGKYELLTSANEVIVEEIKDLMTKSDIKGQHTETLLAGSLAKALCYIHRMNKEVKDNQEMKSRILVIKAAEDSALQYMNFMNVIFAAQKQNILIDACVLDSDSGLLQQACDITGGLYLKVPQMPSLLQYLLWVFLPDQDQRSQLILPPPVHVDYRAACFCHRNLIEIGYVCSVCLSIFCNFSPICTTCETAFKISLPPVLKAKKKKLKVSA

Tests used:
Assay in all cases: log2 fold change, soluble protein after heating vs DMSO (PISA); higher = thermal stabilisation; K562 cells, 10 uM, 30 min; active = over 0.2 and 3.5 SD of the protein, either way, in both replicates (recomputed)
IRAK-1-4 Inhibitor I = compound: C1COCCN1CCN2C3=CC=CC=C3N=C2NC(=O)C4=CC(=CC=C4)[N+](=O)[O-] [IRAK-1-4 Inhibitor I]
Method in brief: (§1)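 Thermal stability values are relative to control samples and come from duplicates. They are expressed as log2 fold changes. For measurement, K562 cells (2×10^6 cells/mL) received 10 μM compound for 30 min, and aliquots were heated for 3 min over 48°C-58°C, pooled, and extracted at 4°C in PBS with 0.5% NP-40. Soluble protein, the supernatant after 21,000xg for 90 min, was quantified by TMTpro 16plex LC-MS/MS with equalised channel sums.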

ibrutinib = compound: C=CC(=O)N1CCC[C@@H](n2nc(-c3ccc(Oc4ccccc4)cc3)c3c(N)ncnc32)C1 [ibrutinib]
Method in brief: as §1

[1] = compound: CC(=O)c1cnc2ccc(-c3cc(Cl)c(O)c(Cl)c3)nc2c1N[C@H]1CC[C@H](CN(C)C)CC1
Method in brief: as §1

ralimetinib = compound: CC(C)(C)Cn1c(N)nc2ccc(-c3[nH]c(C(C)(C)C)nc3-c3ccc(F)cc3)nc21 [ralimetinib]
Method in brief: as §1

[2] = compound: CC(C)(O)CC(=O)NCCn1ccc2ncnc(Nc3ccc(Oc4cccc(C(F)(F)F)c4)c(Cl)c3)c21
Method in brief: as §1

[3] = compound: CC(C)C1=C2N=C(C=C(N2N=C1)NCC3=CC=CC=C3)NCCCCCCN
Method in brief: as §1

[4] = compound: CC(C)C[C@@H](C=O)NC(=O)[C@H](CC(C)C)NC(=O)[C@H](CC(C)C)NC(=O)OCc1ccccc1
Method in brief: as §1

pinometostat = compound: CC(C)N(C[C@H]1O[C@@H](n2cnc3c(N)ncnc32)[C@H](O)[C@@H]1O)[C@H]1C[C@@H](CCc2nc3cc(C(C)(C)C)ccc3[nH]2)C1 [pinometostat]
Method in brief: as §1

[5] = compound: CC1=C(C(CC(=O)N1)C2=CC=C(C=C2)C(F)(F)F)C(=O)NC3=C(C=C4C(=C3)C=NN4)F
Method in brief: as §1

[6] = compound: CC1=C(C2=C(C=C1)C(=O)C3=CC=CC=C3N2CCCN)C
Method in brief: as §1

[7] = compound: CC1=C(C=C(C=C1)NC(=O)C2=CC(=CC=C2)C(C)(C)C#N)NC3=CC4=C(C=C3)N=CN(C4=O)C
Method in brief: as §1

[8] = compound: CC1=C(C=C(C=C1)NC(=O)C2=CC(=CC=C2)N(C)C)NC(=O)C3=CC=C(C=C3)O
Method in brief: as §1

[9] = compound: CC1=CC=C(C=C1)SC2=C3C=C(SC3=CN=C2)C(=O)N
Method in brief: as §1

[10] = compound: CC1=NC(=CC=C1)C2=C(N=C(N2)C(C)(C)C)C3=CC4=NC=CN=C4C=C3
Method in brief: as §1

Nexturastat A = compound: CCCCN(Cc1ccc(C(=O)NO)cc1)C(=O)Nc1ccccc1 [Nexturastat A]
Method in brief: as §1

vemurafenib = compound: CCCS(=O)(=O)Nc1ccc(F)c(C(=O)c2c[nH]c3ncc(-c4ccc(Cl)cc4)cc23)c1F [vemurafenib]
Method in brief: as §1

[11] = compound: CCCS(=O)(=O)Nc1ccc(F)c(C(=O)c2c[nH]c3ncc(Cl)cc23)c1F
Method in brief: as §1

[12] = compound: CCCc1cc(C)[nH]c(=O)c1CNC(=O)c1cc(-c2ccnc(N3CCN(C)CC3)c2)cc2c1cnn2C(C)C
Method in brief: as §1

givinostat = compound: CCN(CC)Cc1ccc2cc(COC(=O)Nc3ccc(C(=O)NO)cc3)ccc2c1 [givinostat]
Method in brief: as §1

barasertib = compound: CCN(CCCOc1ccc2c(Nc3cc(CC(=O)Nc4cccc(F)c4)[nH]n3)ncnc2c1)CCOP(=O)(O)O [barasertib]
Method in brief: as §1

Target	log2 fold change (IRAK-1-4 Inhibitor I)	log2 fold change (ibrutinib)	log2 fold change [1]	log2 fold change (ralimetinib)	log2 fold change [2]	log2 fold change [3]	log2 fold change [4]	log2 fold change (pinometostat)	log2 fold change [5]	log2 fold change [6]	log2 fold change [7]	log2 fold change [8]	log2 fold change [9]	log2 fold change [10]	log2 fold change (Nexturastat A)	log2 fold change (vemurafenib)	log2 fold change [11]	log2 fold change [12]	log2 fold change (givinostat)	log2 fold change (barasertib)
HBE1 (UniProt P02100)	inactive: -0.01	inactive: -0.012	inactive: -0.028	inactive: -0.077	inactive: -0.007	inactive: 0.078	inactive: -0.056	inactive: -0.087	inactive: 0.05	inactive: 0.251	inactive: 0.011	inactive: -0.123	inactive: 0.052	inactive: 0.081	inactive: 0.046	inactive: 0.098	inactive: -0.026	inactive: -0.054	inactive: -0.122	inactive: 0.039
HDAC7 isoform 5 (UniProt Q8WUI4)	inactive: 0.094	inactive: -0.007	active: -0.561	inactive: -0.123	inactive: -0.031	inactive: 0.108	inactive: 0.036	inactive: 0.035	–	inactive: 0.065	inactive: -0.01	inactive: 0.028	inactive: -0.043	inactive: -0.002	inactive: 0.108	inactive: 0	inactive: -0.009	inactive: -0.014	–	inactive: 0
GSKIP (UniProt Q9P0R6)	inactive: 0.008	inactive: 0	inactive: 0.225	inactive: -0.081	–	inactive: -0.043	inactive: -0.074	inactive: 0.004	inactive: 0.043	inactive: 0.221	–	inactive: -0.111	inactive: 0.102	inactive: -0.072	–	inactive: -0.103	inactive: -0.077	inactive: -0.027	inactive: -0.035	inactive: 0.041
GSTT1 (UniProt P30711)	inactive: -0.054	inactive: 0.007	inactive: 0.009	inactive: -0.079	inactive: -0.079	inactive: 0.076	inactive: -0.005	inactive: -0.124	–	inactive: 0.157	–	inactive: -0.004	inactive: 0.011	inactive: 0.101	inactive: -0.062	inactive: 0.064	inactive: -0.063	inactive: 0.081	inactive: 0.009	inactive: -0.018
GYG1 (UniProt P46976)	inactive: -0.055	inactive: 0.025	inactive: -0.29	inactive: 0.176	inactive: 0.029	inactive: -0.114	inactive: 0.064	inactive: 0.125	–	inactive: 0.035	inactive: 0.209	inactive: 0.035	inactive: -0.041	inactive: -0.029	inactive: 0.146	inactive: 0.014	inactive: 0.046	inactive: 0.101	inactive: 0.027	inactive: -0.037
HDHD2 (UniProt Q9H0R4)	inactive: 0.007	inactive: -0.019	inactive: 0.021	inactive: -0.006	inactive: -0.168	inactive: 0.024	inactive: -0.037	inactive: -0.018	–	inactive: 0.003	inactive: 0.059	inactive: 0.028	inactive: 0.023	inactive: 0.014	active: -0.316	inactive: 0.02	inactive: 0.007	inactive: -0.028	inactive: 0.007	inactive: 0.011
GTF2E2 (UniProt P29084)	inactive: -0.041	inactive: -0.008	inactive: -0.104	inactive: -0.012	inactive: -0.033	inactive: -0.137	inactive: 0.075	inactive: 0.056	–	inactive: 0.056	inactive: 0.045	inactive: -0.068	inactive: -0.01	inactive: 0.02	inactive: 0.082	inactive: 0.057	inactive: -0.039	inactive: 0.055	inactive: 0.059	inactive: 0.035
GTF2H3 (UniProt Q13889)	inactive: -0.06	inactive: 0.056	inactive: 0.063	inactive: 0.049	inactive: 0.006	inactive: 0.011	inactive: 0	inactive: 0.06	–	inactive: 0.02	inactive: -0.094	inactive: -0.008	inactive: -0.024	inactive: 0	inactive: 0.016	inactive: -0.081	inactive: -0.021	inactive: -0.112	inactive: 0.068	inactive: -0.042
H3-2 (UniProt Q5TEC6)	inactive: -0.176	inactive: 0.115	–	inactive: 0.14	–	inactive: 0.006	inactive: 0.167	inactive: 0.49	inactive: 0.062	–	inactive: -0.335	inactive: 0.053	inactive: -0.326	inactive: -0.03	–	inactive: -0.808	inactive: -0.578	inactive: -0.616	inactive: 0.037	inactive: -0.056

Exported in CSV form: entries from further up.
Target,log2 fold change (IRAK-1-4 Inhibitor I),log2 fold change (ibrutinib),log2 fold change [1],log2 fold change (ralimetinib),log2 fold change [2],log2 fold change [3],log2 fold change [4],log2 fold change (pinometostat),log2 fold change [5],log2 fold change [6],log2 fold change [7],log2 fold change [8],log2 fold change [9],log2 fold change [10],log2 fold change (Nexturastat A),log2 fold change (vemurafenib),log2 fold change [11],log2 fold change [12],log2 fold change (givinostat),log2 fold change (barasertib)
GSKIP (UniProt Q9P0R6),inactive: 0.008,inactive: 0,inactive: 0.225,inactive: -0.081,–,inactive: -0.043,inactive: -0.074,inactive: 0.004,inactive: 0.043,inactive: 0.221,–,inactive: -0.111,inactive: 0.102,inactive: -0.072,–,inactive: -0.103,inactive: -0.077,inactive: -0.027,inactive: -0.035,inactive: 0.041
GSTT1 (UniProt P30711),inactive: -0.054,inactive: 0.007,inactive: 0.009,inactive: -0.079,inactive: -0.079,inactive: 0.076,inactive: -0.005,inactive: -0.124,–,inactive: 0.157,–,inactive: -0.004,inactive: 0.011,inactive: 0.101,inactive: -0.062,inactive: 0.064,inactive: -0.063,inactive: 0.081,inactive: 0.009,inactive: -0.018
